Assay results as given in US20040009511A1, “Identification of compounds which stimulate bone formation using a cell-based screening assay targeting BMP signaling” (priority 2002, published 2004).
Some of these results come from one statement about several compounds together. At least one structure is not confirmed: it was looked up by name or label, or the drawing left a doubt.

Columns and labels:
Type in all cases: cell-based
[1] = tested on: 9×SBE-6×OSE2-OC-luc reporter construct in 2T3 C-17 cells; assay: Luciferase assay, 9×SBE-6×OSE2-OC-luc reporter stably transfected in 2T3 clone C-17; conditions: over the concentrations tested
Method: (§1) An oligonucleotide containing 9 copies of Smad1 response element (9×SBE) and 6 copies of Cbfa1 response element (6×OSE2) was synthesized in the DNA laboratory at University of Texas Health Science Center at San Antonio. The osteocalcin basal promoter (OC, −155/+1) was amplified by Polymerase Chain Reaction (PCR) using mouse genomic DNA as a template and cloned into pGL3 vector. An 9×SBE-6×OSE2 oligonucleotide was cloned upstream of osteocalcin basal promoter.
(§2) C2C12 and 2T3 cells were plated in 6-well culture plates at densities of 4×10^5 and 2×10^5 cells/well and cultured with DMEM or α minimal essential medium (α MEM) supplemented with 10% FCS for 24 hours. A 9×SBE-6×OSE2-OC-luc-reporter construct (2 μg/well) was co-transfected with pcDNA3 empty vector (0.2 mg/well) in C2C12 and 2T3 cells using lipofactamine plus reagents (Gibco/BRL). […]
(§3) C2C12 and 2T3 cells, in which 9×SBE-6×OSE2-OC-luc-reporter construct was stably transfected, were plated in 96-well culture plates at densities of 1×10^4 and 0.5×10^4 cells/well and cultured for 24 hours. […] The cell lysates were extracted and luciferase activities were determined by luciferase assay kit (Promega, Madison, Wis.) using a Luminometer.
(§4) At the end of the incubation, the cell lysates were extracted using lysis buffer and luciferase activities were measured using a luciferase assay kit (Promega).

[2] = tested on: 9×SBE-6×OSE2-OC-luc reporter construct in C2C12 clone C-10; assay: Luciferase assay, 9×SBE-6×OSE2-OC-luc reporter in C2C12 stable clone C-10; conditions: C2C12 clone C-10, dose-dependent
[3] = tested on: 9×SBE-6×OSE2-OC-luc reporter construct in C2C12 C-10-62 cells; assay: Luciferase assay, 9×SBE-6×OSE2-OC-luc reporter stably transfected in C2C12 clone C-10-62; conditions: over the concentrations tested
Method: as §1, §2, §3, §4

CC[C@H](C)[C@H](NC(=O)[C@H]([C@@H](C)CC)N(C)C(C)=O)C(=O)N[C@H](C(=O)N[C@@H](CC(C)C)C(=O)[C@@]1(C)CO1)[C@@H](C)O [Epoxomicin, epoxomicin, reference compound]
Maximal effect, fold increase in luciferase activity [1]: 4-5 fold
Maximal response, fold increase in luciferase activity [2]: 6-8 fold
Maximal effect, fold increase in luciferase activity [3]: 4-5 fold
